# Values of other authors as cited in patent publication US10759795B2, “Aza-A-ring indenoisoquinoline topoisomerase I poisons” (Purdue Research Foundation, priority 2016, dated 2020).
# The chains behind the UniProt entries cited, without tags or fusion partners.
# UniProt Q9NUW8, whole entry, species assumed: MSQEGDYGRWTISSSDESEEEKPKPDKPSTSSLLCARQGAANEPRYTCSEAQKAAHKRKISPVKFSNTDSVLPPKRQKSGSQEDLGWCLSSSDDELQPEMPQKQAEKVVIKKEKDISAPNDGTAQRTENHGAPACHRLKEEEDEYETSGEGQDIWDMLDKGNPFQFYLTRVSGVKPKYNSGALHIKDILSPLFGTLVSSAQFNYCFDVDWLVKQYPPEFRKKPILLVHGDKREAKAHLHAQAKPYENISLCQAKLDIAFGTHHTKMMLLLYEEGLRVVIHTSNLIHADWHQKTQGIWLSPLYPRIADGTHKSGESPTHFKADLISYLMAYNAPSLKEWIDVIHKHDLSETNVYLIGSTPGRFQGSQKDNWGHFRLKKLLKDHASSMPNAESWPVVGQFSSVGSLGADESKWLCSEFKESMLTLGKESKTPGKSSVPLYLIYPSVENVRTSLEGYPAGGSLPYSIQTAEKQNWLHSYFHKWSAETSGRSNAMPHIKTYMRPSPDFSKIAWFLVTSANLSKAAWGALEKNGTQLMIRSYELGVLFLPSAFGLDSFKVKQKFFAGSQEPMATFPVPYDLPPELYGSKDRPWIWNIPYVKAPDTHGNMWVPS
# For at least one compound, name, drawing or mass did not settle the structure.
# Experiments:
# [1] = molecular target: purified TDP1 (Homo sapiens, UniProt Q9NUW8); conditions: cited from earlier work
# [2] = molecular target: whole cell extract-containing TDP1 (Homo sapiens, UniProt Q9NUW8); conditions: cited from earlier work
compound,measurement,setting,value
O=C1c2ccccc2-c2c1c1ccccc1c(=O)n2CCCNCCCNCCCn1c2c(c3ccccc3c1=O)C(=O)c1ccccc1-2 [Compound 5],IC50 versus purified TDP1,[1],approximately 1 μM
same,IC50 versus whole cell extract-containing TDP1,[2],approximately 1 μM
